Measurements taken from PubChem BioAssay AID652283 (National Center for Advancing Translational Sciences (NCATS), 2013).
The inconclusive results got no clear call from the source; some entries with a clear call stand among them for comparison. Potencies of inconclusive entries are doubtful fits and often do not repeat. Calls of active or inactive are those of the source. Calls follow the shape of the dose curve; as a rule, active = well fitted inhibition curve with a large enough effect; inconclusive = small, poorly fitted or top-dose-only effect; inactive = no such curve, though single readings can be large or run the other way.

Assay: qHTS Assay for Lipid Storage Modulators: COS7 Assay against Probe and Analogs
Settings: COS7 lipid droplet area, BODIPY imaging, 18 h; cells loaded with 400 µM oleic acid
Description: Storing lipids as a reservoir for energy or the anabolism of elementary metabolites is a common feature of probably all cells and is conserved from bacteria to humans. The universal cellular lipid storage organelle is the so-called lipid storage droplet (LD). Although ubiquitous, LDs share a simple structure composed of a hydrophobic core that harbors the storage lipids, which is shielded by a droplet-specific phospholipid monolayer to which proteins are attached. The current model of LD biogenesis involves an incorporation of the lipid core into the membrane leaflets of the endoplasmic reticulum (ER) followed by a subsequent budding-like maturation of a LD, which ultimately pinches off. Once released, LD volume can increase by localized lipogenesis or fusion of existing droplets. Storage lipids are re-mobilized enzymatically by lipase activity. Lipase regulation in the adipocyte is heavily studied and involves multiple components including catecholamine signaling, the LD-associated proteins Perilipin and comparative gene identification-58 (CGI-58) and at least two lipases named hormone sensitive lipase (HSL) and adipocyte triglyceride lipase (ATGL). LD regulation outside of the adipocyte is poorly understood and only few components are known. However, there is an urgent need to learn more about ectopic fat depots as mislocalized storage of lipids, for example in the liver or muscle, is an eminent health problem associated with insulin resistance or the metabolic syndrome. We developed a laser-scanning cytometer assay to enable 1,536-well screening and combined the results of the small molecules screen with an RNAi database based on lipid storage. In this assay we tested analogs of the probe against a mammalian cell line (COS7), to see if these small molecules could disrupt lipid storage. NIH Molecular Libraries Probe Production Centers Network [MLPCN] NIH Chemical Genomics Center [NCGC] MLPCN Grant: MH085686 Assay Submitter (PI): Mathias Beller, Max-Planck-Institut fur Biophysikalische Chemie
COS7 cells were obtained from ATCC (CRL-1651), 5500 cells/well were dispensed into Corning 96 well imaging plate (catalog # 3340), and cultured in 100 uL of 1:1 DMEM medium (PAA) contain 10% fetal bovine serum (FBS) for 24 hours at 37 degrees C, 95% humidity, and 5% CO2. The medium was exchanged for compound treatment. Compound treatment occurred in 150 microL serum reduced medium (5% FBS) and 0.2% DMSO in presence of 400 microM oleic acid for 17-18 h. Cells were then fixed (3.7 % formaldehyde in PBS, 5 min), permeabilized (0.1% Triton X100, 5 min) and washed three times with PBS. Lipid droplets (1:2000 BODIPY 493/503) and nuclei (1:1000 Hoechst 33342) were stained for 1h. Imaging was performed in a Zeiss Axiovert automatic microscope. Number of lipid droplet accumulated in […] cells were analyzed using visual examination of the microscopic images and additional quantification by image segmentation using Cell Profiler.

| SMILES | Potency | max response |
| --- | --- | --- |
| CCOc1ccc(CCNC(=O)c2ccc(C3(C(F)(F)F)N=N3)cc2)cc1OCC | active: 7.43 µM | – |
| CC(C)(C)OC(=O)NC1CCCc2c1cnn2-c1ccc(F)cc1F (centres undefined) | – | inactive: 3.11% |
| O=C(c1cc2sccc2n1Cc1ccccc1)N(CCc1ccc(O)c(O)c1)Cc1ccccc1 | – | inactive: 10.7% |
| CCOc1ccc(CCNC(=O)c2cc3ccccc3n2Cc2ccc(Cl)c(F)c2)cc1OCC | active: 0.332 µM | – |
| O=C(NC1CCCc2c1cnn2-c1ccc(F)cc1F)c1ccccc1 (centres undefined) | inconclusive: 18.7 µM [inhibitor, partial curve, poor fit] | – |
| Cc1cn(-c2cc(NC(=O)c3ccc(C)c(Nc4nccc(-c5cccnc5)n4)c3)cc(C(F)(F)F)c2)cn1 | inconclusive: 0.264 µM [inhibitor, full curve, poor fit] | – |
| Cn1c(=O)n(-c2ccc(C(C)(C)C#N)cc2)c2c3cc(-c4cnc5ccccc5c4)ccc3ncc21 | inconclusive: 0.743 µM [inhibitor, full curve, poor fit] | – |
| CCOc1ccc(CCNC(=O)c2cc3sccc3n2CCN2CCN(C)CC2)cc1OCC | inconclusive: 18.7 µM [inhibitor, partial curve, poor fit] | – |
| O=C(NC1CCCc2c1cnn2-c1ccc(F)cc1F)c1ccsc1 (centres undefined) | inconclusive: 18.7 µM [inhibitor, single point] | – |
| CCOC(=O)C1CCN(C(=O)C2(NC(=O)Nc3ccc(F)cc3F)CCCCC2)CC1 | active: 16.6 µM | – |
| CCOC(=O)C1CCN(C(=O)C(C)(C)NC(=O)Nc2ccccc2Cl)CC1 | active: 13.2 µM | – |
| CCOC(=O)C1CCN(C(=O)C2(NC(=O)Nc3ccccc3Cl)CCC2)CC1 | inconclusive: 16.6 µM [inhibitor, partial curve, poor fit] | – |
| CCOC(=O)C1CCN(C(=O)C(C)(C)NC(=O)Nc2ccc3ccccc3c2)CC1 | inconclusive: 14.8 µM [inhibitor, partial curve] | – |
| CCOC(=O)C1CCN(C(=O)C(C)(C)NC(=O)Nc2ccc3c(c2)CCC3)CC1 | inconclusive: 18.7 µM [inhibitor, partial curve] | – |
| O=C(CCCCCCC(=O)Nc1ccccc1)NO | – | inactive: -18.2% |
| O=C(Nc1ccccc1-c1cn2c(CN3CCNCC3)csc2n1)c1cnc2ccccc2n1 | inconclusive: 23.5 µM [inhibitor, single point] | – |
| CCOC(=O)C1CCN(C(=O)C(C)(C)NC(=O)Nc2ccc(OC)c(Cl)c2)CC1 | inconclusive: 20.9 µM [inhibitor, single point] | – |
| CCOC(=O)C1CCN(C(=O)C(C)(C)NC(=O)Nc2cccc(OC)c2)CC1 | active: 16.6 µM | – |
| O=C(NC1CCCc2c1cnn2-c1ccc(F)cc1F)c1ccc(C2(C(F)(F)F)N=N2)cc1 (centres undefined) | – | inactive: 3.15% |
| O=C(NC1CCCc2c1cnn2-c1ccc(F)cc1F)c1cccs1 (centres undefined) | inconclusive: 16.6 µM [inhibitor, single point] | – |
| CCOC(=O)C1CCN(C(=O)C(C)(C)NC(=O)Nc2ccc3sccc3c2)CC1 | inconclusive: 20.9 µM [inhibitor, single point] | – |
| C[C@@H](NCCCc1cccc(C(F)(F)F)c1)c1cccc2ccccc12 | inconclusive: 33.2 µM [inhibitor, single point] | – |
| CC(C)(C)OC(=O)NCCOCCOCCOCCn1ncc2c1CCCC2NC(=O)c1ccccn1 (centres undefined) | – | inactive: 0.489% |
| COc1nc(-c2ccc3c(c2)OCO3)n(-c2ccc(NC(=O)CSc3ccccc3)cc2)n1 | inconclusive: 0.0372 µM [inhibitor, full curve, poor fit] | – |

In another format: entries from further up.
SMILES	Potency	max response
CCOc1ccc(CCNC(=O)c2ccc(C3(C(F)(F)F)N=N3)cc2)cc1OCC	active: 7.43 µM	–
CCOC(=O)C1CCN(C(=O)C2(NC(=O)Nc3ccc(F)cc3F)CCCCC2)CC1	active: 16.6 µM	–
